The text below walks through data of paper doi:10.1101/588574.

For one experiment, the target named is GFP-EXO1 (human) (UniProt Q9UQ84). The experiment can be described thus: co-IP.
Experiment [1] addresses T1, EXO1-2x-Strep (human), Q9UQ84.
T1 chain: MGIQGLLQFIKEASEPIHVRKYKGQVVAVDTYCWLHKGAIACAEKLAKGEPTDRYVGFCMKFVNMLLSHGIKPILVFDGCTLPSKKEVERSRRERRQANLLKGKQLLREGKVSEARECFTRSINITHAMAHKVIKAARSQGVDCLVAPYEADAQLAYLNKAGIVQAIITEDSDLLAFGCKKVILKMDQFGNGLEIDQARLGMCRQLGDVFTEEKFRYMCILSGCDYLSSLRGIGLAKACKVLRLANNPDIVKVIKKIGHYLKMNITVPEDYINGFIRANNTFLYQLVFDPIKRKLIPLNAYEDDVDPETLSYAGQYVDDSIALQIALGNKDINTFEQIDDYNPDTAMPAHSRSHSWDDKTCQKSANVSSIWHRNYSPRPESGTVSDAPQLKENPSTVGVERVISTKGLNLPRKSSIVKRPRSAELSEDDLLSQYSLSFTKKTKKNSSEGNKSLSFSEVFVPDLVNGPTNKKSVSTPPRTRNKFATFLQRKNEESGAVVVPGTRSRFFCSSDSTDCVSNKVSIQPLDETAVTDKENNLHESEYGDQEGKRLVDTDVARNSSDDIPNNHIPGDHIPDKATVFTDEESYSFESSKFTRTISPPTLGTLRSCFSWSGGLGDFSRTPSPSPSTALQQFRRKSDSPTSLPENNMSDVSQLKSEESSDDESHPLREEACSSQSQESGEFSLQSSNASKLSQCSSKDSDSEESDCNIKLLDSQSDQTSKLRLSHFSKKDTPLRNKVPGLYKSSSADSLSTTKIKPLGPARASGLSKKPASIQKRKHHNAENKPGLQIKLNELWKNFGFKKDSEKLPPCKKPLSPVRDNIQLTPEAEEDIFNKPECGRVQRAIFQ
Put plainly: pull-down. As to conditions: remark: other sources report otherwise.

Results are given in words; binding and its absence hold for the method and conditions named. Binding seen in cells or lysates may run through a third protein. Some entries that bind do so weakly or less than the wild type.

B1: PHD-finger protein 6 (protein, UniProt Q8IWS0 1-365)
chain: MSSSVEQKKGPTRQRKCGFCKSNRDKECGQLLISENQKVAAHHKCMLFSSALVSSHSDNESLGGFSIEDVQKEIKRGTKLMCSLCHCPGATIGCDVKTCHRTYHYHCALHDKAQIREKPSQGIYMVYCRKHKKTAHNSEADLEESFNEHELEPSSPKSKKKSRKGRPRKTNFKGLSEDTRSTSSHGTDEMESSSYRDRSPHRSSPSDTRPKCGFCHVGEEENEARGKLHIFNAKKAAAHYKCMLFSSGTVQLTTTSRAEFGDFDIKTVLQEIKRGKRMKCTLCSQPGATIGCEIKACVKTYHYHCGVQDKAKYIENMSRGIYKLYCKNHSGNDERDEEDEERESKSRGKVEIDQQQLTQQQLNGN
Consider B1, for which the binding entry in the experiment with GFP-EXO1 (human) is “binds”.

B2: RNF138 (protein, UniProt Q8WVD3 1-245)
chain: MAEDLSAATSYTEDDFYCPVCQEVLKTPVRTTACQHVFCRKCFLTAMRESGAHCPLCRGNVTRRERACPERALDLENIMRKFSGSCRCCAKQIKFYRMRHHYKSCKKYQDEYGVSSIIPNFQISQDSVGNSNRSETSTSDNTETYQENTSSSGHPTFKCPLCQESNFTRQRLLDHCNSNHLFQIVPVTCPICVSLPWGDPSQITRNFVSHLNQRHQFDYGEFVNLQLDEETQYQTAVEESFQVNI
As to B2, in the experiment with GFP-EXO1 (human), the binding result is recorded as “binds”.

B3: MRE11, P49959 1-708 (protein)
chain: MSTADALDDENTFKILVATDIHLGFMEKDAVRGNDTFVTLDEILRLAQENEVDFILLGGDLFHENKPSRKTLHTCLELLRKYCMGDRPVQFEILSDQSVNFGFSKFPWVNYQDGNLNISIPVFSIHGNHDDPTGADALCALDILSCAGFVNHFGRSMSVEKIDISPVLLQKGSTKIALYGLGSIPDERLYRMFVNKKVTMLRPKEDENSWFNLFVIHQNRSKHGSTNFIPEQFLDDFIDLVIWGHEHECKIAPTKNEQQLFYISQPGSSVVTSLSPGEAVKKHVGLLRIKGRKMNMHKIPLHTVRQFFMEDIVLANHPDIFNPDNPKVTQAIQSFCLEKIEEMLENAERERLGNSHQPEKPLVRLRVDYSGGFEPFSVLRFSQKFVDRVANPKDIIHFFRHREQKEKTGEEINFGKLITKPSEGTTLRVEDLVKQYFQTAEKNVQLSLLTERGMGEAVQEFVDKEEKDAIEELVKYQLEKTQRFLKERHIDALEDKIDEEVRRFRETRQKNTNEEDDEVREAMTRARALRSQSEESASAFSADDLMSIDLAEQMANDSDDSISAATNKGRGRGRGRRGGRGQNSASRGGSQRGRADTGLETSTRSRNSKTAVSASRNMSIIDAFKSTRQQPSRNVTTKNYSEVIEVDESDVEEDIFPTTSKTDQRWSSTSSSKIMSQSQVSKGVDFESSEDDDDDPFMNTSSLRRNRR
Turning to B3, the binding entry in experiment [1] is given as “no binding”.
